Experimental data from PMC2816689.
These are yes or no findings as the source states them, for the method shown. For some of these results: Binding seen in cells or lysates may run through a third protein. Some entries that bind do so weakly or less than the wild type. Sequences can lack the tags named with a protein.

T1: myc-Rad3-kdΔ (truncated Rad3^ATR lacking the kinase domain) (S. pombe) (UniProt Q02099)
T1 sequence: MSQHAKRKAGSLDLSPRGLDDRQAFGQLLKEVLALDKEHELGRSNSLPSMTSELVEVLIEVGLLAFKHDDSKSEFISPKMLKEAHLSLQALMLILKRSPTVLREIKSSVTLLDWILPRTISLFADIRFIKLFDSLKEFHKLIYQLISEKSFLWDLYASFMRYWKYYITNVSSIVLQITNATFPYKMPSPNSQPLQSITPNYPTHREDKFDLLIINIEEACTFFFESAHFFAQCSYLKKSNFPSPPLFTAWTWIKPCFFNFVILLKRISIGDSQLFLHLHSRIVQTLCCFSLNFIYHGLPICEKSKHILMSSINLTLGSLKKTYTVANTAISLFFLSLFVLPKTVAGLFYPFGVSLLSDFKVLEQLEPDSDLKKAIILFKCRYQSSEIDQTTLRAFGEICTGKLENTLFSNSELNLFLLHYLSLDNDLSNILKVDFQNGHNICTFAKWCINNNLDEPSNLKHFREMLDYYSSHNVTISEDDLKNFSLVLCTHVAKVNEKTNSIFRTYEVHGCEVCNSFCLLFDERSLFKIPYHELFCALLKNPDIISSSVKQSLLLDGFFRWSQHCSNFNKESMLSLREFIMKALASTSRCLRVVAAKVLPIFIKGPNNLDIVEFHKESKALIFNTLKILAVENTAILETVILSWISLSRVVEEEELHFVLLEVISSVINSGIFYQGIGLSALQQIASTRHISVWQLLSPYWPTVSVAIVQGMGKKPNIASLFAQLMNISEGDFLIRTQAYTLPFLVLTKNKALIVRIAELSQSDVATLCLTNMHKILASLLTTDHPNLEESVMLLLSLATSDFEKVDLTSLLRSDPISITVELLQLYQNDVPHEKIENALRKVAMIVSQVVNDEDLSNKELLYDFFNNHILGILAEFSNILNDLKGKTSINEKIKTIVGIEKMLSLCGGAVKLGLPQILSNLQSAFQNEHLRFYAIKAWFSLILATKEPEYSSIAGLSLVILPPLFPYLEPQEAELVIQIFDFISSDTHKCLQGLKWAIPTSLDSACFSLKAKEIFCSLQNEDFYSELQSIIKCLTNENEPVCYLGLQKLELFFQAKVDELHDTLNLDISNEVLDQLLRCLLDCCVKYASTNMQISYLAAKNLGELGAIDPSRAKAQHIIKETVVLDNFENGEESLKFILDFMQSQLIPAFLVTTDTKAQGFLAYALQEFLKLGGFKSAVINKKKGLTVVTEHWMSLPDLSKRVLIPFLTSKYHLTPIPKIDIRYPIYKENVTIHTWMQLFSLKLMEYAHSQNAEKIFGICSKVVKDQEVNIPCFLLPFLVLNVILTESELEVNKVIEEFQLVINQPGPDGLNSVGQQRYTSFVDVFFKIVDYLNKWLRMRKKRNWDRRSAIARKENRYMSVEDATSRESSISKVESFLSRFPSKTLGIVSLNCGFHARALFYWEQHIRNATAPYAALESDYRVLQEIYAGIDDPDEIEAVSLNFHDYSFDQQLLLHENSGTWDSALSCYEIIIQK

T2: C-terminal truncation of Rad3 (Rad3-kdΔ), two-hybrid fusion (S. pombe) (UniProt Q02099)
T2 sequence: T1 sequence

B1: YFP-Rad26 (Rad26^ATRIP) (protein, UniProt P36632 1-614)
chain: MMADESFDLESLGSDEIFEGVNLDELEQQAQTQVQAQSSQVVVPSEKQKQNLNLPNSYTNSSQKVRESTVNSQASLSSNDLRTELLIKSGENAILRANLLKQSEANNAALESLNNSIKQKQDEYQRKLEELKKEIEYAKTKSLFHEREAQDAIETMKKMKRDVKNSPIMKKSHEEDGDNKLLSSSDQLAKSTKHAAKNSPSKKKRKTSVATAEDASTDSVSSSIAISDASLSLSLMKDLLSLQKREDLYFSSRTLAYVFGGCMHSLETIEGEEEGECLFNNLKALIYSPDLSMDSSNYVQSVVQTSSSILNYSMKKLLYNASFAITSLFNALLILDPKSSTFIFQENVVSLISGFLLKEYEKSNFLDSKFYVLIDFLYLYLSIARESADDFANITKAVDPSLFESCIRVQNAPSLIKCGVCLIISSTTPSFCASVNLLNADDKSQESLMQLFTTMAHILVVTTRERINFPELNEWITLHRFVISFFTVFIQMSGNIGKEILKVCNPLIVCIGLAITWYHQQLLSSMYPQNECVEILVSLVRLLYILSSEDLSSKFMLAENALQPRFVYAIACCAFGDTEQKAFGNLGEEMYFLTTELLEVCVSPEELEQLYTNF
B2: S. pombe Rad26, two-hybrid fusion (protein, UniProt P36632 1-614)
chain: B1 chain

Assays:
[1] = target: T1, myc-Rad3-kdΔ (truncated Rad3^ATR lacking the kinase domain) (S. pombe); assay: co-IP; anti-myc immunoprecipitation from S. pombe cell extracts (lysis buffer 2: 25mM Tris pH7.5, 100mM NaCl, 0.1% NP40, 1% Triton) of strains expressing YFP-Rad26 and myc-Rad3 or myc-Rad3-kdΔ; anti-GFP western blot
[2] = target: wild-type myc-Rad3 (Rad3^ATR) (S. pombe) (UniProt Q02099); assay: as above
[3] = target: T2, C-terminal truncation of Rad3 (Rad3-kdΔ), two-hybrid fusion (S. pombe); assay: two-hybrid; GAL4-DBD and GAL4-AD plasmids in mated S. cerevisiae strains (…); growth on SD-HTL (-His) plates
[4] = target: full-length Rad3 (Rad3+), two-hybrid fusion (S. pombe) (UniProt Q02099); assay: as above

Row | Binder | binding [1] | binding [2] | binding [3] | binding [4]
1 | B1 | binds | binds |  | 
2 | B2 |  |  | binds | binds
